{"source": "patent US20090137626A1", "about": "“Pharmaceutical Composition Containing PPARgamma Agonist” (priority 2005, published 2009)", "system": "Male Zucker diabetic fatty (ZDF) rats", "assay": "Test Example 1: elimination of blood lactate after intravenous sodium lactate load (blood lactate AUC 0 to 60 minutes)", "format": "in vivo", "conditions": "Group A: Compound A 300 mg/kg oral, 1 hour before sodium lactate 0.1 g/kg i.v., compared with control group (P<0.05, t-test), FIG. 1", "excerpt": "Improvement Effects by Concomitant Use of 5-{4-[(6-methoxy-1-methyl-1H-benzimidazol-2-yl)methoxy]benzyl}thiazolidine-2,4-dione hydrochloride (Compound B) for Delayed Elimination of Lactate caused by Administration of Metformin (hereinafter referred to as-Compound A)\nMale Zucker diabetic fatty (ZDF) rats (sold by Japan Charles River, Inc.) age 10 weeks presenting diabetes-were divided into four groups consisting of a control group, a Compound A dose group (Group A), a Compound B treatment control group (Group B) and a Compound A-Compound B dose group (Group B+A). The animals of Group B and Group B+A were given free access for 1 week to Compound B mixed in powdered feed (FR-2 Powdered Laboratory Rodent Diet, Funabashi Farm Co., Ltd.) to a concentration of 0.001%. […]\nCompound A was orally administered at 300 mg/kg to the animals of Group A and Group B+A one week after the start of treatment with Compound B, while the animals of the control group and Group B were orally administered dosing solvent only. […] Blood samples were collected from the caudal vein immediately before and 5, 15, 30, 45 and 60 minutes after administration of sodium lactate, and blood lactate levels were measured using the Lactate Pro LT-1710 (Arkray, Inc.). The areas under the curve for blood lactate concentration (blood lactate AUC) were calculated from blood lactate levels from 0 to 60 minutes measured for each animal. […]", "data": [{"smiles": "CN(C)C(=N)NC(=N)N.Cl", "note": "[Compound A, 1,1-dimethylbiguanide hydrochloride, reference compound]", "values": [{"measurement": "blood lactate AUC", "value": "increased significantly"}]}]}
